# Measurements as given in the supplement of paper PMC6411743.
# The chains behind the UniProt entries cited, without tags or fusion partners. Where a name states a change or a piece, a line headed by the entry shows the natural chain unless it says otherwise.
# UniProt Q9NZ45: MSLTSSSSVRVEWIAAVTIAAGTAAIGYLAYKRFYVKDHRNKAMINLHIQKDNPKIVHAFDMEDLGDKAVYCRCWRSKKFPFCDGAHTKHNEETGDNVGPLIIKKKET
# UniProt Q9NWV8, whole entry: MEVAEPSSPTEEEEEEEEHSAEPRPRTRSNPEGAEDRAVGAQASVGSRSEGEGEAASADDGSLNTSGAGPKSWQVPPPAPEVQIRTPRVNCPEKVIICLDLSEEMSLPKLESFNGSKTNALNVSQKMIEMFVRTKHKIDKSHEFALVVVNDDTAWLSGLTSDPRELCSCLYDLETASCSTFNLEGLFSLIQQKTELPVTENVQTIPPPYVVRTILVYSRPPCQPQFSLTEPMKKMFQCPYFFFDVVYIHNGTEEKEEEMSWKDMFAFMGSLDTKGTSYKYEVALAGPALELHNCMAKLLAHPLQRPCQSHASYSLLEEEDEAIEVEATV
# UniProt Q9ULE6: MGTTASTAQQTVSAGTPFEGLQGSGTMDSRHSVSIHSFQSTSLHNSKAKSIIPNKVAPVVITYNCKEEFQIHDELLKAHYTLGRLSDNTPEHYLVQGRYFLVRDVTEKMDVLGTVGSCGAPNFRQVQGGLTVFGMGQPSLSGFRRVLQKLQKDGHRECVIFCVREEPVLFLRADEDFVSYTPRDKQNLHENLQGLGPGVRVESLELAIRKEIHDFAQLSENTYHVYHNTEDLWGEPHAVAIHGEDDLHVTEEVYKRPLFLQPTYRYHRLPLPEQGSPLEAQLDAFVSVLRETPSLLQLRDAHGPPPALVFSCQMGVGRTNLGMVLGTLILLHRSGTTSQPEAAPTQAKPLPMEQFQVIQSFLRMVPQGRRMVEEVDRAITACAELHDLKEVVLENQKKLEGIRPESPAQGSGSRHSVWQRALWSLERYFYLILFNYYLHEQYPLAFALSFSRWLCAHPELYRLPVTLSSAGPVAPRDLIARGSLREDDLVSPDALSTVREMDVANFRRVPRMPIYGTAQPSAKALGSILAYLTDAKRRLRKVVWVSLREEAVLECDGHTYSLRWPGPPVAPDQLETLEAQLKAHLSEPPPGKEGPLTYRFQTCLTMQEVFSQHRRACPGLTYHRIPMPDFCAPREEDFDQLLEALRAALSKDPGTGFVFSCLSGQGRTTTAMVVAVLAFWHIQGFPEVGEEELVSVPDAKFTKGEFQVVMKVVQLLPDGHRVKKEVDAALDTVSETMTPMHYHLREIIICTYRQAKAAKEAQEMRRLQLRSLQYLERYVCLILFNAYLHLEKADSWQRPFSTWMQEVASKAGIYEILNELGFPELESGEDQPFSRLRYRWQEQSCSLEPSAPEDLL
# UniProt Q9NZW5: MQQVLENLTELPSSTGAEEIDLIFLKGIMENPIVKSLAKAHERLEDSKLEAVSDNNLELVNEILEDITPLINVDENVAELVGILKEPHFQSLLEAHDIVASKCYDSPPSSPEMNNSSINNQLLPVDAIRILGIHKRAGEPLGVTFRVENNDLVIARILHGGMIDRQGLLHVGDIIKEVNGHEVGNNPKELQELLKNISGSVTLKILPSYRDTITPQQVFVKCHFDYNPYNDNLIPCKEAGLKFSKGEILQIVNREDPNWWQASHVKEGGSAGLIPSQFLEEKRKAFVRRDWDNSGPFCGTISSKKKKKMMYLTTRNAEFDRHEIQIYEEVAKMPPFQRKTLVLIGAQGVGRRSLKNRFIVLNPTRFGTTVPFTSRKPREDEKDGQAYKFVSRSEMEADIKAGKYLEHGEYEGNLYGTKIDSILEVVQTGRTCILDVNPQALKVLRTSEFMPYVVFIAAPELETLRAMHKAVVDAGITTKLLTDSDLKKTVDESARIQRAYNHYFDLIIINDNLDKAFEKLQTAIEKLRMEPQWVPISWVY
# UniProt Q9UKT4: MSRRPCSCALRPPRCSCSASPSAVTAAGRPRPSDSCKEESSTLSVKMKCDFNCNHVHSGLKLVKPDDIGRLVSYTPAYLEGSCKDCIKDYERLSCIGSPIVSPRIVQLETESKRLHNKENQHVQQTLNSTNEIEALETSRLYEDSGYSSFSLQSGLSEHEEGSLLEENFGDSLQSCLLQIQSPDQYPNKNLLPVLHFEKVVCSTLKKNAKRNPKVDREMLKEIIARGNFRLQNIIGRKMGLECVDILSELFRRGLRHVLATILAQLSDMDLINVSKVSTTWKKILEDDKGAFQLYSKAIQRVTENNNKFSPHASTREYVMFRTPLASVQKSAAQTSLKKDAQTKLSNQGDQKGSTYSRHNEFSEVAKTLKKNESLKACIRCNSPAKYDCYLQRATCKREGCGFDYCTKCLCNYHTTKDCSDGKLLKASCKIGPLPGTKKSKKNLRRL
# ± gives the standard deviation of the averaged measurements. The list shows a part of the results.
# Compound: Nc1nc2c(ncn2[C@@H]2O[C@H](COP(=O)(O)OP(=O)(O)OP(=O)(O)O)[C@@H](O)[C@H]2O)c(=O)[nH]1 [guanosine triphosphate]
# Assay: NP40-soluble protein abundance relative to vehicle (solubility fold change) (ratio); higher = more soluble protein in presence of GTP
# Description: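 Solubility proteome profiling in Jurkat crude lysate. Lysate was treated with Mg-GTP (0.1-10 mM) for 10 min at room temperature and 3 min at 37 °C, then solubilised with 0.8% NP40 and benzonase, followed by ultracentrifugation. Proteins were quantified by TMT10 LC-MS/MS; the value is the NP40-soluble abundance relative to the NP40-processed vehicle, from 3 independent experiments.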
Target,NP40-soluble protein abundance (concentration: 0.1mM),NP40-soluble protein abundance (concentration: 0.5mM),NP40-soluble protein abundance (concentration: 1mM),NP40-soluble protein abundance (concentration: 2mM),NP40-soluble protein abundance (concentration: 4mM),NP40-soluble protein abundance (concentration: 6mM),NP40-soluble protein abundance (concentration: 8mM),NP40-soluble protein abundance (concentration: 10mM)
CISD1 (UniProt Q9NZ45),0.841 ± 0.055,0.817 ± 0.043,0.987 ± 0.049,0.959 ± 0.033,0.953 ± 0.085,0.934 ± 0.039,0.919 ± 0.17,0.918 ± 0.015
UniProt Q9NWV8,0.903 ± 0.13,0.927 ± 0.088,0.899 ± 0.076,0.899 ± 0.083,0.91 ± 0.14,0.918 ± 0.084,0.924 ± 0.078,0.953 ± 0.086
UniProt Q9ULE6,0.969 ± 0.13,1.19 ± 0.15,1.03 ± 0.091,1.04 ± 0.17,1.09 ± 0.065,1.07 ± 0.075,1 ± 0.13,0.992 ± 0.1
MPP6 (UniProt Q9NZW5),1.05 ± 0.033,1.04 ± 0.031,0.9523 ± 0.0041,0.946 ± 0.022,0.974 ± 0.036,0.933 ± 0.033,0.938 ± 0.02,0.902 ± 0.08
UniProt Q9UKT4 and related entries,1.08 ± 0.099,1 ± 0.014,1.13 ± 0.19,1.1 ± 0.11,1.16 ± 0.14,1.12 ± 0.12,1.03 ± 0.052,1.07 ± 0.03
